Data reported in PubChem BioAssay AID1508600 (Functional Genomics Laboratory (NCATS/FGL), 2020).
The campaign covered roughly 53,000 sequences. About 3,700 (7%) were called active.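 Rule for the calls: active = gene knockdowns whose robust z-score for IL-1 alpha signal is at least 2 or at most -2, so actives lie on both sides; inactive = the rest.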 Some of the results follow.

Assay: Components of the Cytosolic LPS Sensing Pathway: Gene Identification via Genome-wide siRNA Screen;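 note: robust z of the log signal after scaling to non-targeting control siRNA wells of the plate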
Conditions: RAW264.7 macrophages, IL-1a HTRF, actives lie on both sides, screened at 100 nM (by protocol), cells primed 5 h with Pam3CSK4 first
Procedure, shortened: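 RAW264.7 mouse macrophages reverse-transfected with single siRNAs (100 nM final) for 48h, primed with Pam3CSK4 for 5 hours, then transfected with LipidA for 24 hour. Supernatant IL-1a read by HTRF; values normalized to negative-control median, log-transformed robust z-scores.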

z-score, inactive:
CCAGGUAAACAUUGCUACUTT against Mpdz 0.551, GCUUCUCAAAUAAACAGCATT against Hexa -1.06, GGUCCAACGAUAUGUUGACTT against Cyp2c67 1.27, CCCGUCUUACUGCUCUUCUTT against Slc22a13 0.198, GGACUUCAGAGUGGACAUUTT against Sec16b -0.19, CCUCAUCAAAGUCCGUCUATT against Slc25a45 -0.117, CCAUCACCUCUUUGGAACUTT against Zfp579 -0.669, GCGAAACAGACACUUCGGUTT against Dlgap5 0.595, GGGAAUACAUUCAUUAUCATT against Sema3c -0.773, CCGUCUAUACCUUAAUUGATT against Ifnlr1 -0.0183, GGCAUUUCCGACAGAGAUGTT against Cpne4 -1.28, CCUAAUCAGUGUUAAGUACTT against Atrnl1 0.656, GGCAUCUGUUAUUGAAGUGTT against Vit 1.12, GCACUCGGCCAUAAAGUGUTT against Phkb 0.879, GGAGGAUGCUGAAAUUAUUTT against Atp6v0a1 -0.833, GGGACCAAGGGAUAAACCATT against Atxn7l1 -1.04, GGACUGUACUAUGGCUCUCTT against Nt5m 0.135, GCCUGAUGGUGCUAAGACUTT against Olfr854 1.48, GCGUAUUUGAGAAUUUAGATT against Atrx -0.659, UGUUCCUAGGUCAGCUACUTT against Olfr1200 -1.54, CCAAUCCUGUGAGAGCAUGTT against Tectb 0.244, GGGACCUCUACAGAGAUGUTT against Zfp113 1.58, GGAGGGUUUGCUUGAUGUUTT against Nyap1 -0.00391, GGCUGAAUGUCGCUUAGAGTT against 9030612E09Rik -0.875, GCUAGAGGUGACUGAUGUCTT against Tti1 -1.26, GGAACACUAUCUCACCUUUTT against Psd2 -0.0667, GCCAUGAAACUUCAUGCUGTT against Spink4 -0.0377, GGAGCUGAAUGACCGCUUUTT against Vim -0.0679, CUUUCUUGCCGUAUUUUACTT against Olfr1287 -0.569, CUCCCUGGCAUUAAUCCGUTT against Tepp 0.0788, GCAUGAAUAUUCCUCGUGATT against LOC433501 -0.442, GGCUUUGUAUCCUUAUGUATT against Setd1b -0.736, GGUAAAACAUUGUUUAGACTT against Cdk12 -1.1, GGAACAAAAGGUGAUCGUGTT against Col25a1 -1.74, GGUAUGUCGCCAUCUGCUUTT against Olfr1342 0.733, GGCCAUAACACAAAUGUAGTT against Prpf4 0.554, GGACUACCUGUGUAUGCUCTT against Dcaf12l1 1.3, GGUAGUUCAUCUCAGGCCUTT against Muc13 0.524, GGGAUUCUAGACCAAUCCATT against Fam114a1 -0.538, GGAAAUGACGAGAAGAAAGTT against Mapt -0.0597, GGAGAAACAUCAAUUGCACTT against Thbs2 -0.0207, GGGUCUCAUUGACCACCAGTT against Plec -0.0874, GCCAUCCUGAUAUCAGGCATT against Tas2r138 -0.991, CGUCUGCCACCUAUUUGAGTT against Olfr122 0.165, GGGAGCUAUGGAUUUGCUGTT against Tcea2 -0.0877, GGCAGUAGUGUUAACGGUGTT against Chrnb2 0.422, GGAAUCUAGCUGAGAAAAUTT against Lepr -0.62, GGAAGAGCUGGACUUCUUCTT against Hoxb2 1.71, GGCCUCCUGAUUUGAUUGUTT against Crct1 0.971, GGUGAAACAGCGAAUAGGUTT against Zfp428 -0.168, GGCAUCAAGCACAAGAAAATT against Sys1 -1.16, GGCCUGACCUUCAACAAGATT against Gab2 0.24, GGGAUCCAUCCUUAUUGUUTT against Ybx2 -0.101, GACCAUAGGGCAGAUGAAGTT against Svs3b -1.4, GGAAAUCCAGAAGCGUGUGTT against Gtpbp3 -0.436, GGACUUGGAAGAAGUAUAATT against Rbl2 -0.713, GGUCCUGGAAGAUCCUUCUTT against Slc30a6 0.337, CCAGAUCAUCGUGCAGAAUTT against E4f1 0.557, GGAUUAAGUUGUCAUCAUUTT against Cdk14 0.874, CGUAUCCAAAAGUGAUUUCTT against Tigd5 1.27, GGGUAUCCCGCUUUUCUACTT against Slc6a18 0.841, GGACAAAUUGGUUGUGCUATT against Olfr457 -1.46, CCGAAUGAUCAUCACACUGTT against Vmn1r32 0.155, GGCCUUGAAGCAGAAGUCUTT against Gfra1 -1.21, CGGUCACAGAGGAAGAAUATT against Ank2 0.236, GCGCAUUCUCCAUUAAACATT against Cyp4f16 0.429, GGAGUCUUGUCCAUGUAAUTT against Zfp52 0.28, GGCCUUUGCAUGCAAUAGUTT against Zfp119b 0.0596, GGGUCUAGAGACAUGUGGCTT against Saa3 0.198, GGACCACAUAGCUUUUGAGTT against Zswim6 0.458, GCAGUCAGGAGUUGUUCAGTT against Btg1 0.648, CGAUUCUUUACUAAAUUGGTT against Chek1 -0.313, CGGACAUCAUUGUUUUAAGTT against Rbbp7 -0.891, GCGCAGAGCAAAAUCGAAUTT against Gja1 1.09, GGGAGUGGCUCCUCAGAAATT against AW549877 -1.98, GGAAAAUCAGAUUUCAGAGTT against Lrrn1 -1.35, GCAAAUGACCUUCUCACACTT against Gga2 1.44, CCAAGUAAUGGCUGAUCGCTT against Tmem74 -0.802, GGCUUUCAGAAGUUUAUCATT against Lgr5 -0.217, GGACAUCAUGGACCUGAAGTT against Bmerb1 -0.582, GAGGGCUCUACAGUUUUUATT against Atp5g3 0.952, GGAAAUGAAUAUGAACCUUTT against Tmem67 0.536, GGUGAUUGACAGAUUCUGATT against Nr4a1 -0.613, GGGCCUUGUACUUCACUUGTT against Med23 0.545, GCCAACCUGAAUAGACCUCTT against Glis3 1.67, GGAGCAUACAUCUAAGAUUTT against Zfp185 -0.0921, CGGUAAUCAUUGCUGUUCUTT against H2-K1 1.05, GGAGAUACCUGUCAAACAATT against Npm2 -0.971, GCUCUGUUCACACGUUUAATT against Arhgap10 -0.898, GGCUGUAAAUAUCUGCCAUTT against Meaf6 -1.41, CCACAUGAACAAUUUGGGCTT against Rpl9 0.0288, GGAAGUUACUGUUGAGUAGTT against Olfr114 0.209, GGUGUUUACACCCAGCACCTT against Ankfn1 1.27, GGUUCAUCUUUCAAAUCUATT against Kpna4 -0.676, GGAUCAUGGGCGAAUGAUGTT against Rae1 -1.41, GGAAUCCUUUGUCAAAGGATT against Myh2 0.82, CUCUAAGCAGCCGAACACUTT against Scx -1.08, CGGCCUUUAUGAAAAGUUATT against Rraga 0.172, GGAAUCUAUCUCUACUGUATT against Hp1bp3 1.34, GGUCAAUAAAGAGUGUGAATT against Fam25c -1.22, GGGUUGAACCAUUGUUAAATT against Cyld 1.49, GGGCUGACUGCUCACUUAATT against Pnp 0.504, GGAGUCAAAAGAAAAGAAGTT against Galm 1.54

z-score, active:
GCAGGGAUCUGGAUUUAAUTT against Arf5 3.37, CCGUGAUCCCUUUUCACCATT against 6030445D17Rik -2.26, GCUGCUUUCUUUGGAGGACTT against Olfr484 2.27, GGUUCAGAUCCACAGCCAGTT against Asic2 -2.12
